The list shows a part of the results. Shown are side measurements of this screen, not its main read-out; they come without a call. Most of these compounds were active or inconclusive in the main read-out, so they are no random draw. The note in brackets gives the kind of curve behind each potency; many fits are weak.
Assay: qHTS Assay for Lipid Storage Modulators in Drosophila S3 Cells;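 as to cell number change: cells counted by Cell Tracker Red CMTPX staining in the red channel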
Conditions: BODIPY lipid droplet fluorescence, 18-24 h; for cell number change: measured here: cell count max response, cells fed with added oleic acid
Procedure, shortened: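 Drosophila S3 cells got compounds at several concentrations plus oleic acid (400 uM solution). Laser-scanning cytometry with 488 nm excitation read lipid droplets at 500-530 nm and cells at 575-640 nm. Percent activity was relative to 20 uM Triacsin C.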

[1] = measured here: lipid fluorescence (Fed channel) AC50, cells fed with added oleic acid
[2] = measured here: cell number channel AC50, cells fed with added oleic acid

| SMILES | cell number change [%] | AC50 [1] | AC50 [2] |
| --- | --- | --- | --- |
| CCOc1ccc2nc(SCC(=O)N3CCCCCC3)c(C#N)cc2c1 | 5.62 | 5.8 µM [rising, single point] |  |
| CC(C)n1cnc2c(Nc3cccc(Cl)c3)nc(N(CCO)CCCO)nc21 | -7.4 |  |  |
| O=C(NCCC1=CCCCC1)c1cnc2n(c1=O)CCS2 | 9.36 | 0.461 µM [rising, full curve, poor fit] | 0.291 µM [rising, partial curve, poor fit] |
| COc1ccc(N2CCN(c3ncnc4c3cnn4-c3ccc(C)cc3C)CC2)cc1 | -9.04 | 0.411 µM [rising, partial curve, poor fit] |  |
| CC1CCCC(C)N1/N=C/C=C/c1ccccc1[N+](=O)[O-] (stereo unspecified) | -18.6 |  |  |
| CC1CCCN(S(=O)(=O)c2ccc(NC(=O)[C@@H]3CCCN3C(=O)c3cccs3)cc2)C1 (stereo partly specified) | 10.5 | 3.26 µM [falling, single point] |  |
| NC(=S)N/N=C/c1cccc(O)c1O | -21.1 | 29.1 µM [falling, single point] |  |
| COc1ccc(Br)cc1/C=C/C(=O)c1ccc(NC(C)=O)cc1 | -33.3 |  | 9.2 µM [falling, partial curve] |
| Cc1ccc(NC(=O)c2c([N+](=O)[O-])c(C(C)(C)C)nn2C)c(C)c1 | -15.3 | 1.3 µM [falling, full curve] |  |
| CCc1cccc(OCCN2CCCC2)c1 |  |  | 2.31 µM [rising, single point] |
| Cc1[nH]c2ccccc2c1C(=O)CN1CCN(c2ccc(Cl)cc2)CC1 |  | 0.651 µM [rising, full curve] |  |
| COc1ccc2cc(CCN3C(=O)c4ccccc4C3=O)c(=O)[nH]c2c1 | 13.4 | 2.06 µM [rising, full curve] |  |
| COc1cccc(-c2cc(C(=O)O)[nH]n2)c1 | 2.61 | 0.259 µM [rising, full curve, poor fit] |  |
| C=C(C)c1cccc(C(C)(C)NC(=O)N2CCC(C(N)=O)CC2)c1 | -37.2 |  | 0.164 µM [falling, full curve] |
| CCC1CCC(c2nnc(-c3ccc(Br)cc3)o2)CC1 (stereo unspecified) | -31.4 |  | 25.9 µM [falling, single point] |
| O=C(c1ccc(CS(=O)Cc2cccc(Cl)c2)o1)N1CCN(C2CCCCC2)CC1 (stereo unspecified) |  | 6.51 µM [falling, single point] |  |
| Cc1ccc(N2C(=O)C3C(C2=O)C2C=CC3C23CC3)c([N+](=O)[O-])c1 (stereo unspecified) | 5.02 |  |  |
| O=C(COC(=O)CNC(=O)c1ccc(Br)cc1)NCCC1=CCCCC1 | -21.1 | 0.58 µM [rising, single point] |  |
| CCOc1ccc(OCC)c(NC(=O)CSc2nnc(C3CC3)n2CC)c1 | 10.3 | 5.17 µM [falling, single point] |  |
| Cc1c(NC2=CC(=O)CCC2)c(=O)n(-c2ccccc2)n1C | -14.8 | 2.91 µM [falling, full curve] |  |

Taken from the results shown, 17 compounds:

| SMILES | cell number change [%] | AC50 [1] | AC50 [2] |
| --- | --- | --- | --- |
| COc1ccc(N2CCN(c3ncnc4c3cnn4-c3ccc(C)cc3C)CC2)cc1 | -9.04 | 0.411 µM [rising, partial curve, poor fit] |  |
| CC1CCCC(C)N1/N=C/C=C/c1ccccc1[N+](=O)[O-] (stereo unspecified) | -18.6 |  |  |
| CC1CCCN(S(=O)(=O)c2ccc(NC(=O)[C@@H]3CCCN3C(=O)c3cccs3)cc2)C1 (stereo partly specified) | 10.5 | 3.26 µM [falling, single point] |  |
| NC(=S)N/N=C/c1cccc(O)c1O | -21.1 | 29.1 µM [falling, single point] |  |
| COc1ccc(Br)cc1/C=C/C(=O)c1ccc(NC(C)=O)cc1 | -33.3 |  | 9.2 µM [falling, partial curve] |
| Cc1ccc(NC(=O)c2c([N+](=O)[O-])c(C(C)(C)C)nn2C)c(C)c1 | -15.3 | 1.3 µM [falling, full curve] |  |
| CCc1cccc(OCCN2CCCC2)c1 |  |  | 2.31 µM [rising, single point] |
| Cc1[nH]c2ccccc2c1C(=O)CN1CCN(c2ccc(Cl)cc2)CC1 |  | 0.651 µM [rising, full curve] |  |
| COc1ccc2cc(CCN3C(=O)c4ccccc4C3=O)c(=O)[nH]c2c1 | 13.4 | 2.06 µM [rising, full curve] |  |
| COc1cccc(-c2cc(C(=O)O)[nH]n2)c1 | 2.61 | 0.259 µM [rising, full curve, poor fit] |  |
| C=C(C)c1cccc(C(C)(C)NC(=O)N2CCC(C(N)=O)CC2)c1 | -37.2 |  | 0.164 µM [falling, full curve] |
| CCC1CCC(c2nnc(-c3ccc(Br)cc3)o2)CC1 (stereo unspecified) | -31.4 |  | 25.9 µM [falling, single point] |
| O=C(c1ccc(CS(=O)Cc2cccc(Cl)c2)o1)N1CCN(C2CCCCC2)CC1 (stereo unspecified) |  | 6.51 µM [falling, single point] |  |
| Cc1ccc(N2C(=O)C3C(C2=O)C2C=CC3C23CC3)c([N+](=O)[O-])c1 (stereo unspecified) | 5.02 |  |  |
| O=C(COC(=O)CNC(=O)c1ccc(Br)cc1)NCCC1=CCCCC1 | -21.1 | 0.58 µM [rising, single point] |  |
| CCOc1ccc(OCC)c(NC(=O)CSc2nnc(C3CC3)n2CC)c1 | 10.3 | 5.17 µM [falling, single point] |  |
| Cc1c(NC2=CC(=O)CCC2)c(=O)n(-c2ccccc2)n1C | -14.8 | 2.91 µM [falling, full curve] |  |

Next records follow:

| SMILES | cell number change [%] | AC50 [1] | AC50 [2] |
| --- | --- | --- | --- |
| COC(=O)C1=C(C)N(c2cccc(OC)c2)C(=O)/C1=C\c1ccco1 |  |  | 0.731 µM [rising, single point] |
| Cc1cc(Cl)c(S(N)(=O)=O)cc1OCC(N)=O | -0.671 |  | 1.16 µM [falling, full curve] |
| CCC1(CC)NC(=O)N(CC(=O)OC(C)C(=O)Nc2ccc(NC(C)=O)cc2)C1=O (stereo unspecified) | 12.2 | 20.6 µM [falling, single point] |  |
| Cc1ccc(C)c(C(=O)NC(C)CCc2ccccc2)c1 (stereo unspecified) | 14.3 | 0.00517 µM [falling, full curve, poor fit] | 0.0259 µM [falling, full curve, poor fit] |
| Cc1ccccc1Nc1cc(=O)oc2ccccc12 |  | 6.51 µM [falling, single point] |  |
| COc1ccc(C(=O)N/N=C/C(C)c2ccccc2)cc1OC (stereo unspecified) | -31.4 | 23.1 µM [falling, single point] | 20.6 µM [falling, single point] |
| Cc1cccc(C)c1NC(=O)Cn1nnnc1N | -21.9 | 6.51 µM [falling, full curve] |  |
| N#Cc1cc2c(nc1Cl)CCCC2 | -33.3 |  | 6.51 µM [rising, partial curve] |
| Cc1nc2ccccc2nc(C)c1=NOCc1cccc(F)c1 | -39.2 | 13 µM [falling, single point] | 2.06 µM [falling, partial curve] |
| CCSc1cc(C2C(C(=O)OC)=C(C)NC3=C2C(=O)CCC3)c(C)o1 (stereo unspecified) | 61.2 | 0.146 µM [rising, single point] | 5.8 µM [rising, partial curve] |
| COc1ccc(C(=O)N/N=C/c2ccc(N3CCOCC3)o2)cc1OC | 6.54 | 0.103 µM [falling, full curve, poor fit] |  |
| CCOC(=O)CCCNC(=O)COC(=O)CCC(=O)c1ccc(F)cc1 | 4.66 |  |  |
| COc1ccc(N(C)C(=S)Nc2ccc3nc(C)c(C)nc3c2)cc1 | 12.7 | 0.092 µM [rising, full curve, poor fit] |  |
| CSC(=S)N/N=C/c1c[nH]c2ccccc12 | -6.49 | 23.1 µM [falling, single point] |  |
| COc1cc(CN2CCCCCC2)cc(OC)c1O | 18.2 | 29.1 µM [rising, single point] |  |
| CCCn1c(N)c(C(=O)CN(C)CC(=O)Nc2ccccc2C(F)(F)F)c(=O)[nH]c1=O |  | 6.51 µM [falling, single point] |  |
| c1ccc2c(c1)oc1c(N3CCN(Cc4ccc5c(c4)OCO5)CC3)ncnc12 | 224 | 1.16 µM [rising, partial curve] | 5.8 µM [rising, partial curve] |
| COc1ccc(C)cc1-n1nnnc1SCC(=O)Nc1cccnc1Cl | 50 |  | 20.6 µM [rising, single point] |
| COc1cc2cc(C(=O)O)[nH]c2c(OC)c1OC | 5.9 | 0.184 µM [rising, full curve] |  |
| O=C(NCCCN1CCCC1=O)c1ccc2c(c1)NC(=O)C(N1CCOCC1)S2 (stereo unspecified) | -3.53 |  | 0.103 µM [falling, full curve, poor fit] |

| SMILES | cell number change [%] | AC50 [1] | AC50 [2] |
| --- | --- | --- | --- |
| O=C(O)c1ccc(Oc2c(C(F)(F)F)oc3cc(O)ccc3c2=O)cc1 | -54.8 | 0.13 µM [falling, full curve, poor fit] | 0.13 µM [falling, full curve, poor fit] |
| COc1ccc(C2=NN(C(=O)c3cccnc3)C(c3ccccc3)C2)cc1 (stereo unspecified) | -0.725 | 0.116 µM [rising, partial curve, poor fit] |  |
| CC(C)[C@@H](C(=O)OCC(=O)Nc1ccc2c(c1)OCO2)N1C(=O)c2ccccc2C1=O | 52.9 | 0.0651 µM [rising, full curve, poor fit] | 0.058 µM [rising, full curve] |
| Cc1ccc(S(=O)(=O)n2c3ccc(Cl)cc3c3nc(C)sc32)cc1 | 36.7 | 32.6 µM [falling, single point] | 8.2 µM [rising, partial curve] |
| CC1(C2CC2)NC(=O)N(CC(=O)NCc2ccc(Cl)cc2Cl)C1=O (stereo unspecified) | -1.88 | 6.51 µM [rising, single point] |  |
| COc1cc(OC)c(N(C)S(=O)(=O)c2cccc(C(=O)Nc3nnc(C4CC4)s3)c2)cc1Cl |  | 1.16 µM [rising, single point] |  |
| CN(Cc1ccccc1)S(=O)(=O)c1ccc(N2CCCC2=O)cc1 | -16.6 |  |  |
| COc1ccc(C)cc1NC(=O)C(OC(=O)c1ccc([N+](=O)[O-])o1)c1ccccc1 (stereo unspecified) | 12.5 | 29.1 µM [rising, single point] | 0.731 µM [rising, single point] |
| CCOC(=O)C1=NN(C(=O)COc2ccccc2)C(O)(c2ccc(Br)cc2)C1 (stereo unspecified) | -1.79 | 4.11 µM [falling, single point] | 6.51 µM [falling, single point] |
| O=C(O)CCCNC(=O)/C(=C\c1ccc(Cl)cc1)NC(=O)c1ccccc1Br | 45.5 |  | 10.3 µM [rising, partial curve] |
| COc1ccc(NC(=O)C2=C(C)Nc3nc(CCCO)nn3C2c2ccc(OC)c(OC)c2)cc1 (stereo unspecified) | -5.73 |  |  |
| COc1cc(C(=O)OCC(=O)c2cc(C)n(C)c2C)cc(NC(=O)c2ccco2)c1OC | 7.16 | 0.116 µM [rising, full curve, poor fit] |  |
| Cc1ccc2c(c1)-c1nc3ccccc3cc1C2=NC1CCCCC1 | -62 |  | 29.1 µM [falling, single point] |
| Cc1ccc(Cn2ncc3c(NN)ncnc32)cc1 | -44.1 |  | 2.31 µM [rising, partial curve] |
| CCc1ccc(N2CSC3=C(C#N)C(c4cccs4)CC(=O)N3C2)cc1 (stereo unspecified) | -1.08 | 4.11 µM [rising, partial curve, poor fit] |  |
| CCOC(=O)C1=C(C)NC(C)=C(C(=O)OCC)C1C(=O)OCC(=O)NC(C)c1ccccc1 (stereo unspecified) | 4.53 | 0.82 µM [falling, partial curve, poor fit] |  |
| CCCn1cc([C@@H]2C[C@H]3CN(Cc4cccc(Cl)c4)C(=O)[C@]34CCCN24)c(C)n1 | 2.69 | 3.66 µM [falling, partial curve, poor fit] |  |
| COc1ccc2c(c1)O[C@H](c1ccc3c(c1)OCO3)[C@@H](O)C2=O | -0.132 | 0.92 µM [rising, partial curve] |  |
| Cc1ccc(NC(=O)CSc2nnc([C@@H]3CCCN3C(=O)OC(C)(C)C)o2)c(C)c1 | 14.5 |  | 0.103 µM [rising, full curve, poor fit] |

Reference: PubChem BioAssay AID2685 (National Center for Advancing Translational Sciences (NCATS), 2010)
